PubChem BioAssay AID504774 – Drosophila RNAi Screening Center – 2011

Assay: 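Genes required for cells to withstand methyl methanesulphonate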 (primary screen)
Cell system: Drosophila Kc167 cells
Reagents: long dsRNA against Drosophila genes, about 0.25 µg dsRNA per well
Timing: about 6 days: 3 days knock-down, then 3 days with or without MMS
Conditions: methyl methanesulphonate 0.004% (w/v) for 3 days after knock-down
Read-out: 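Viability in wells given MMS, read as ATP luminescence, normalised by quantiles plate by plate and averaged across replicates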
Reading the numbers: mean viability with MMS and viability with MMS: higher = more surviving cells after MMS
The deposit covers about 23,000 reagents; this is a random part of those that have a named target and a result. 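Values are quantile-normalised luminescence on an arbitrary scale; higher means more cells surviving MMS.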 A plus sign joins genes that one reagent is predicted to hit.

| gene | amplicon | mean viability with MMS | viability with MMS, replicate 1 | viability with MMS, replicate 2 |
| --- | --- | --- | --- | --- |
| Fntb | DRSC15244 | 3.58e6 | 4.10e6 | 4.02e6 |
| CG15615 | DRSC06568 | 3.48e6 | 3.93e6 | 3.93e6 |
| Acsf2 | DRSC02172 | 3.44e6 | 3.80e6 | 3.99e6 |
| CG42296 | DRSC00394 | 3.39e6 | 3.82e6 | 3.80e6 |
| morgue | DRSC00264 | 3.51e6 | 3.91e6 | 4.04e6 |
| Rpp20 + CG33932 | DRSC19467 | 3.62e6 | 4.17e6 | 3.99e6 |
| Obp83a | DRSC12362 | 3.48e6 | 3.96e6 | 3.96e6 |
| rogdi | DRSC10906 | 3.48e6 | 4.01e6 | 3.87e6 |
| cnir | DRSC00499 | 3.87e6 | 4.45e6 | 4.18e6 |
| CG12003 | DRSC08214 | 3.59e6 | 4.12e6 | 4.01e6 |
| CG14626 | DRSC18631 | 3.49e6 | 3.98e6 | 3.96e6 |
| CG42516 + Pbp49 | DRSC06073 | 3.64e6 | 4.21e6 | 4.06e6 |
| Osi14 | DRSC12368 | 3.29e6 | 3.79e6 | 3.74e6 |
| CG6527 | DRSC10659 | 3.53e6 | 4.12e6 | 3.89e6 |
| Cpn | DRSC16613 | 3.46e6 | 3.94e6 | 3.90e6 |
| tst + CG10375 | DRSC14237 | 3.39e6 | 3.93e6 | 3.74e6 |
| cyp33 | DRSC07600 | 3.61e6 | 4.09e6 | 4.10e6 |
| CG14778 | DRSC17953 | 3.60e6 | 4.08e6 | 4.08e6 |
| CG15696 | DRSC15118 | 3.48e6 | 3.91e6 | 4.01e6 |
| Ubc87F | DRSC16513 | 3.42e6 | 3.71e6 | 4.03e6 |
| rdhB | DRSC16190 | 3.53e6 | 3.97e6 | 4.04e6 |
| CG1603 | DRSC06602 | 3.08e6 | 2.82e6 | 2.97e6 |
| CG7202 | DRSC11818 | 3.83e6 | 4.30e6 | 4.21e6 |
| CG5568 | DRSC10518 | 3.68e6 | 4.08e6 | 4.26e6 |
| CG5568 | DRSC22816 | 3.50e6 | 4.05e6 | 3.92e6 |
| ClpX | DRSC15592 | 3.36e6 | 3.76e6 | 3.88e6 |
| Pvf1 | DRSC20024 | 3.68e6 | 4.20e6 | 4.19e6 |
| CG13220 | DRSC06342 | 3.62e6 | 4.20e6 | 3.95e6 |

An excerpt from above, reduced to “viability with MMS, replicate 2”:
CG15615 [DRSC06568]	3.93e6
Acsf2 [DRSC02172]	3.99e6
CG42296 [DRSC00394]	3.80e6
